The list shows a part of the results.
What was measured:
Experiment in all cases: log2 fold change, soluble protein after heating vs DMSO (PISA); higher = thermal stabilisation; K562 cells, 10 uM, 30 min; active = over 0.2 and 3.5 SD of the protein, either way, in both replicates (recomputed)
[1] = compound: Cc1ccc(NC(=O)c2ccc(CN3CC[C@H](N(C)C)C3)c(C(F)(F)F)c2)cc1Nc1nccc(-c2cncnc2)n1 [bafetinib]
Summary of the method: (§1)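 Quantification of soluble protein used TMTpro 16plex LC-MS/MS, with channel sums equalised. Samples were the supernatant after 21,000xg for 90 min of pooled aliquots from K562 cells (2×10^6 cells/mL) treated with 10 μM compound for 30 min, heated for 3 min over 48°C-58°C, and extracted in PBS with 0.5% NP-40 at 4°C. Values, from duplicates, describe thermal stability against control samples on a log2 fold-change scale.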

The chains behind the UniProt entries cited, without tags or fusion partners. Where a name states a change or a piece, a line headed by the entry shows the natural chain unless it says otherwise.
UniProt Q5J8M3, whole entry, looked up: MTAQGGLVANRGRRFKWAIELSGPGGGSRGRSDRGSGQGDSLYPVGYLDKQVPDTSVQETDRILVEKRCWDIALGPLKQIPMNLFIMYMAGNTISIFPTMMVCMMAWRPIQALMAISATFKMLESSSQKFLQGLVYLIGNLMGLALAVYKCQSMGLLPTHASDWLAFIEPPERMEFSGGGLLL
UniProt Q9UBQ5, whole entry, looked up: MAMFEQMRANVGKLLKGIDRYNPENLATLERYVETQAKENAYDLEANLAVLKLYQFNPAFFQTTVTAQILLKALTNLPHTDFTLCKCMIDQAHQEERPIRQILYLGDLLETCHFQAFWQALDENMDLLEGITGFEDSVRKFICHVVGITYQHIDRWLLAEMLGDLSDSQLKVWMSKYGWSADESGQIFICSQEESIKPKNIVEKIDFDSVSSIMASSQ
UniProt P41091, whole entry, looked up: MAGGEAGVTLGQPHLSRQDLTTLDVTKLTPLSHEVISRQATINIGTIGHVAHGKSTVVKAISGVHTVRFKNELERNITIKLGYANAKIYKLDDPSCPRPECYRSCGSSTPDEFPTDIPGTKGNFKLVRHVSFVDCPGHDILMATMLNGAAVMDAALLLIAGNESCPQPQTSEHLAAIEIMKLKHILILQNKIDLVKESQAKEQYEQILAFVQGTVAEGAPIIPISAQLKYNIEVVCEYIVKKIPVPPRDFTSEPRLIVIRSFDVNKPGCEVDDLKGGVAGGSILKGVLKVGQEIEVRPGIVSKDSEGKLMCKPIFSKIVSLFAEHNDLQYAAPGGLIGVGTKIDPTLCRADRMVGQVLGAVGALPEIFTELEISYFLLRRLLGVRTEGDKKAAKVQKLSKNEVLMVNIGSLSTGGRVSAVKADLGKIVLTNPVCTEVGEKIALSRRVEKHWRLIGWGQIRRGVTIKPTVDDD
UniProt Q8N766: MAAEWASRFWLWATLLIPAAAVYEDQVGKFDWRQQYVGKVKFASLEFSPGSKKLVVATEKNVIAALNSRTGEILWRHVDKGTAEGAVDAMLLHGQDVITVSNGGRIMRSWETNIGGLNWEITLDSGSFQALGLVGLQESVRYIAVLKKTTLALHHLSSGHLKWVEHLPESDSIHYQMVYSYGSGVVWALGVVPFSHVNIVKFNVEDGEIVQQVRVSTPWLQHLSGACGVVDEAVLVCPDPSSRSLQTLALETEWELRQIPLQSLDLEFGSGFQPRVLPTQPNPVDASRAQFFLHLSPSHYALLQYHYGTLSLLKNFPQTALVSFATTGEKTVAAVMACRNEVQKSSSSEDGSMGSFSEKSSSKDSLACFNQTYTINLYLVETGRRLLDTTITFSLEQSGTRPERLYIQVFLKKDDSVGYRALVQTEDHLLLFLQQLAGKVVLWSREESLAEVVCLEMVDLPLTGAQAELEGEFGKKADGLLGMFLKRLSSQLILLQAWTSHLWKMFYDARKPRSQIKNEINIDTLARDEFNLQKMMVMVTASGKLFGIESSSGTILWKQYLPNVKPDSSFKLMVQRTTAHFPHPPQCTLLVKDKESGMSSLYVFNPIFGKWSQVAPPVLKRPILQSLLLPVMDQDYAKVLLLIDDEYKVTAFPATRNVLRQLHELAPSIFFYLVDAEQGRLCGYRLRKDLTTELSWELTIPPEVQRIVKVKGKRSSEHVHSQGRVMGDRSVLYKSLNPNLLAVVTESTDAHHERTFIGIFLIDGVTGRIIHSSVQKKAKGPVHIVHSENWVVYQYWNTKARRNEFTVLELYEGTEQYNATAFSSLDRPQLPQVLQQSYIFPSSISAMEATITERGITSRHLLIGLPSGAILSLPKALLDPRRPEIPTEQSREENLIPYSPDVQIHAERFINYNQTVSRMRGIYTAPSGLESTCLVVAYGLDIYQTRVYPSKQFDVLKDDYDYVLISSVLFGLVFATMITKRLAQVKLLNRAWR
UniProt P41214: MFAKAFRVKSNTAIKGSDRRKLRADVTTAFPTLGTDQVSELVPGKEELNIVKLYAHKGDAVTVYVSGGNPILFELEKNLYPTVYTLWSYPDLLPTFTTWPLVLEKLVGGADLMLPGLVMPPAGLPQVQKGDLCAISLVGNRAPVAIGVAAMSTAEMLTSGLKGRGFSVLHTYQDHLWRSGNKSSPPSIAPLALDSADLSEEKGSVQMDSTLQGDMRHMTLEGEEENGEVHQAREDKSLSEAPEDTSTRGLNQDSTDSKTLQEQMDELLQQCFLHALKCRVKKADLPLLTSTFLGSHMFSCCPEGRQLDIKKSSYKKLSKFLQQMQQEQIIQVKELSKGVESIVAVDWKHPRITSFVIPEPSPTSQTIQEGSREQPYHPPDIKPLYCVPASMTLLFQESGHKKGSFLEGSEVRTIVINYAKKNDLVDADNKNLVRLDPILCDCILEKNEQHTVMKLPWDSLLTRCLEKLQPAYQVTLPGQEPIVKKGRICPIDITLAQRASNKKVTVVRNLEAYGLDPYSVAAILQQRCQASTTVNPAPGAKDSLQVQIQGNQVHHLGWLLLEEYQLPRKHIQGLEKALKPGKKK
UniProt Q15029: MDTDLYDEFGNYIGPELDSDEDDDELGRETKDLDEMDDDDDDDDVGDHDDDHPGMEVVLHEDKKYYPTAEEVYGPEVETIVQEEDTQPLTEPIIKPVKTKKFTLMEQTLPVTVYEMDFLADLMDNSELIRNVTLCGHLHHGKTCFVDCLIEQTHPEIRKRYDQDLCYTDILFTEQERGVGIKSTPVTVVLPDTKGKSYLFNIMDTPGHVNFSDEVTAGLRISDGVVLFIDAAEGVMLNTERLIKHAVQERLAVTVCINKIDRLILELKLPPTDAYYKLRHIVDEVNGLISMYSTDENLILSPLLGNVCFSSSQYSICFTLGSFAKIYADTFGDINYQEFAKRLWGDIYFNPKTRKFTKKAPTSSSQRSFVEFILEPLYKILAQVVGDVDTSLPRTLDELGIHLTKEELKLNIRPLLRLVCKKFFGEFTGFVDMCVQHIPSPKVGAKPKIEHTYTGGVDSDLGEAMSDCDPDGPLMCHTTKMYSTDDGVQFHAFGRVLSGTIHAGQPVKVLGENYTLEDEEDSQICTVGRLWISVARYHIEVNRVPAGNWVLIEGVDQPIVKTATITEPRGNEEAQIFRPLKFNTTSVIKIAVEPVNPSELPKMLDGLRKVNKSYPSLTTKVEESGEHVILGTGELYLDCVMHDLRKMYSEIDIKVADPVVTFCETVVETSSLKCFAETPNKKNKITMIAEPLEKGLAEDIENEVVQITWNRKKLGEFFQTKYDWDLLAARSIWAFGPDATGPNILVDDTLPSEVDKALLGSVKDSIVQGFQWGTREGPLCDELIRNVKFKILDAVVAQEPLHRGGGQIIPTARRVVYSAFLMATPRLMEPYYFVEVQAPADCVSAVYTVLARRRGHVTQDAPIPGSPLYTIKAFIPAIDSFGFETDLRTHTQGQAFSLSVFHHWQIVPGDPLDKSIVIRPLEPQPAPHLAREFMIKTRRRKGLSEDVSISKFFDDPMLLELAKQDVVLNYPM
UniProt Q05BV3: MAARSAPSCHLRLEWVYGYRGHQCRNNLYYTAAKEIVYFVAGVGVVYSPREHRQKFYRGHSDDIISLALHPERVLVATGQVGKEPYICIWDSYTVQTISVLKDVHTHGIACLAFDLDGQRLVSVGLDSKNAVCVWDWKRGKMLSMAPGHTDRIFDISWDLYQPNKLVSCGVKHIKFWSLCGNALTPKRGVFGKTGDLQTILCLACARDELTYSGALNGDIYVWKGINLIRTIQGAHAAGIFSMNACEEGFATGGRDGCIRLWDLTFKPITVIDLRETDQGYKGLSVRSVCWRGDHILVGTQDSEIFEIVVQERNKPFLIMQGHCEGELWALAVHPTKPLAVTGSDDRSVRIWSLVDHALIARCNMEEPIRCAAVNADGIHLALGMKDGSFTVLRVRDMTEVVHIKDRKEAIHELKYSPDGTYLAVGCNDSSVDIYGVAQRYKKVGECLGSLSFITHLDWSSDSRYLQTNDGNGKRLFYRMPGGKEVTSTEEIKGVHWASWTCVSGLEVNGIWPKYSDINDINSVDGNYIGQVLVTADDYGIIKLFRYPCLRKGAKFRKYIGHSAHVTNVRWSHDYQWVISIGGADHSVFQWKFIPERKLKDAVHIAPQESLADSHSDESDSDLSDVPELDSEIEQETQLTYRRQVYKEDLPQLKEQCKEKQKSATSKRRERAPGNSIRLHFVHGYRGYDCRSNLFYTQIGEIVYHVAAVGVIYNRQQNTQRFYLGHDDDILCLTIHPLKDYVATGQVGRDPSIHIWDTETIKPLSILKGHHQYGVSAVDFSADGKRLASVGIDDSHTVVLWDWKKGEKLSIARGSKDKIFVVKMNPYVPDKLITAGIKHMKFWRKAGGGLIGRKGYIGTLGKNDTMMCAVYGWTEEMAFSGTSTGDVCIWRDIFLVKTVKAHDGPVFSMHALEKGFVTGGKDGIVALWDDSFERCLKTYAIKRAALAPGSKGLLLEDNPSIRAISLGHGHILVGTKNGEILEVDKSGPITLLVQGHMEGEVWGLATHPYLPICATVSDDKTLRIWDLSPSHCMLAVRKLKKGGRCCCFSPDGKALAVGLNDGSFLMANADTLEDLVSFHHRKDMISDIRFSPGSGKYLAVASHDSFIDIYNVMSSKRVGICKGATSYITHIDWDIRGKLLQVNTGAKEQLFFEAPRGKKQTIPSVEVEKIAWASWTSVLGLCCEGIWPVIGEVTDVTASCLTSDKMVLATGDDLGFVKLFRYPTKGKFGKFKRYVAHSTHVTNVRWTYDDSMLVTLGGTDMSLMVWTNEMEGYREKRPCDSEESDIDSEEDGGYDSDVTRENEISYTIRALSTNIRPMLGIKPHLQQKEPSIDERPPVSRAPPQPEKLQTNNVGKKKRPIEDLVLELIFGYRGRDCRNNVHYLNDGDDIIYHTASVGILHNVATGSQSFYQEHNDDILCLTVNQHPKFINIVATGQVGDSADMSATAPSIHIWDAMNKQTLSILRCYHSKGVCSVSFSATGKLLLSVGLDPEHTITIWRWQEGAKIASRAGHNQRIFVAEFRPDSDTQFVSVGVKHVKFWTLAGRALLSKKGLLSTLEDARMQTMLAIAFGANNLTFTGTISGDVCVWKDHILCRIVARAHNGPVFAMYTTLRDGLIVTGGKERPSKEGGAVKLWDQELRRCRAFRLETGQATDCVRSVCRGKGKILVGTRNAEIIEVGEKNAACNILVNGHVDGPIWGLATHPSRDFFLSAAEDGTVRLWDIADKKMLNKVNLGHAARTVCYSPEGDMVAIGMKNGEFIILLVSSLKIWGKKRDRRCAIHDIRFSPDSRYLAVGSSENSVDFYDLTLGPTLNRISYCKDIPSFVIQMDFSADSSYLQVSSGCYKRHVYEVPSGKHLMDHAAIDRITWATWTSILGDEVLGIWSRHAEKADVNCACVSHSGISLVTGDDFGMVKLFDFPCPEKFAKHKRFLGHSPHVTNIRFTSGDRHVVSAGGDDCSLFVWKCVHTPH
UniProt Q9BQI3, whole entry, looked up: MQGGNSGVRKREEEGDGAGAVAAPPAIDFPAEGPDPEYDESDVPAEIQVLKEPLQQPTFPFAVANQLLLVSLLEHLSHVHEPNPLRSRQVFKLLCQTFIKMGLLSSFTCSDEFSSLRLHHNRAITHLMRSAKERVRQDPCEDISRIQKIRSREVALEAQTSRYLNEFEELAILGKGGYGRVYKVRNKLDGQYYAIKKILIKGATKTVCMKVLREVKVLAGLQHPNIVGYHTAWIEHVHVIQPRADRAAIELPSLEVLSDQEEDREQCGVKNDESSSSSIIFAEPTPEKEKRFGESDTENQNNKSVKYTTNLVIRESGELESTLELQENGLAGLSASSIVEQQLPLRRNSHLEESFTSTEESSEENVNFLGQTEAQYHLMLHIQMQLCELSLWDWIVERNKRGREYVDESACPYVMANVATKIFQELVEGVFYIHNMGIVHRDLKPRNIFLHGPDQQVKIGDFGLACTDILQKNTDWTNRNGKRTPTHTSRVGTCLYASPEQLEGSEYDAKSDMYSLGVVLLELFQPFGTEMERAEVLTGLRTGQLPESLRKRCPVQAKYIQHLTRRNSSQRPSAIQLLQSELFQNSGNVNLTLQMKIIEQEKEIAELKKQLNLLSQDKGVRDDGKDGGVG
UniProt O75354: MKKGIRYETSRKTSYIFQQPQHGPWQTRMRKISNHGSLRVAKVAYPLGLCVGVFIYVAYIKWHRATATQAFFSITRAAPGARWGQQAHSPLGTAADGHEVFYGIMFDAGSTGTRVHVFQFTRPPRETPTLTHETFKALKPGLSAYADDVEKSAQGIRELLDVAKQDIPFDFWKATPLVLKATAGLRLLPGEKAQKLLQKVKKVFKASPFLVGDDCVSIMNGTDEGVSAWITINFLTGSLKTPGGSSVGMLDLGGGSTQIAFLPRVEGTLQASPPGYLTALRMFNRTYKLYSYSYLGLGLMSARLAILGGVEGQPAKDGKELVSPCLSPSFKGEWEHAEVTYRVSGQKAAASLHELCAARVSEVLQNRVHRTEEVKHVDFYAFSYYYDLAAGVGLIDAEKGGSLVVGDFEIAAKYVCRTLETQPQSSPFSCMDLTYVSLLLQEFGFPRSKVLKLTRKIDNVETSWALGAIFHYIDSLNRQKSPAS

[2] = compound: Cc1cccc(CC(=O)N2CCc3c2ccc(-c2cn(C)c4ncnc(N)c24)c3F)n1
Summary of the method: as §1

[3] = compound: Cc1cn(-c2cc(NC(=O)c3ccc(C)c(Nc4nccc(-c5cccnc5)n4)c3)cc(C(F)(F)F)c2)cn1 [nilotinib]
Summary of the method: as §1

[4] = compound: Cc1nc(Nc2n[nH]c3c2CN(C(=O)N[C@H](CN(C)C)c2ccccc2)C3(C)C)c2sccc2n1
Summary of the method: as §1

[5] = compound: Cc1nc(Nc2ncc(C(=O)Nc3c(C)cccc3Cl)s2)cc(N2CCN(CCO)CC2)n1 [dasatinib]
Summary of the method: as §1

[6] = compound: Cc1ncc(-c2ccnc(Nc3ccc(S(C)(=O)=O)cc3)n2)n1C(C)C
Summary of the method: as §1

[7] = compound: Cn1cc(-c2ccc3c(c2)CCN3C(=O)Cc2cccc(C(F)(F)F)c2)c2c(N)ncnc21
Summary of the method: as §1

[8] = compound: Cn1cc(-c2ccc3nnc(C(F)(F)c4ccc5ncccc5c4)n3n2)cn1
Summary of the method: as §1

[9] = compound: Cn1cncc1[C@@](N)(c1ccc(Cl)cc1)c1ccc2c(c1)c(-c1cccc(Cl)c1)cc(=O)n2C [tipifarnib]
Summary of the method: as §1

[10] = compound: FC(F)(F)c1ccc(/C=C/c2nc(COc3ccc(CCCCn4ccnn4)cc3)co2)cc1 [mubritinib]
Summary of the method: as §1

Row | Target | log2 fold change [1] | log2 fold change [2] | log2 fold change [3] | log2 fold change [4] | log2 fold change [5] | log2 fold change [6] | log2 fold change [7] | log2 fold change [8] | log2 fold change [9] | log2 fold change [10]
1 | EML4 (UniProt Q9HC35) | inactive: 0.094 | inactive: 0.056 | inactive: -0.099 | inactive: 0.03 | inactive: -0.04 | inactive: 0.021 | inactive: -0.023 | inactive: -0.014 | inactive: -0.066 | inactive: 0.015
2 | EMC4 (UniProt Q5J8M3) | inactive: -0.025 | inactive: -0.001 | inactive: 0.027 | inactive: 0.009 | inactive: -0.018 | inactive: -0.034 | inactive: 0.024 | inactive: 0.083 | inactive: 0.014 | inactive: 0.103
3 | EIF3K (UniProt Q9UBQ5) | inactive: 0.005 | inactive: -0.004 | inactive: -0.037 | inactive: -0.009 | inactive: -0.026 | inactive: -0.034 | inactive: 0.075 | inactive: 0.03 | inactive: -0.032 | inactive: 0
4 | EIF2S3 (UniProt P41091) | inactive: 0.133 | inactive: -0.023 | inactive: -0.04 | inactive: 0.072 | inactive: 0.043 | inactive: 0.014 | inactive: -0.081 | inactive: -0.052 | inactive: 0.019 | inactive: -0.017
5 | EIF3I (UniProt Q13347) | inactive: 0.076 | inactive: 0.055 | inactive: -0.069 | inactive: -0.047 | inactive: -0.148 | inactive: 0.056 | inactive: -0.046 | inactive: -0.073 | inactive: -0.112 | inactive: -0.003
6 | EIF5A isoform 2 (UniProt P63241) | inactive: -0.003 | inactive: 0.075 | inactive: 0.003 | inactive: -0.127 | inactive: -0.124 | inactive: 0.035 | inactive: 0.035 | inactive: 0 | inactive: -0.085 | inactive: 0.034
7 | EMC1 (UniProt Q8N766) | inactive: -0.016 | inactive: 0.001 | inactive: -0.006 | inactive: 0.008 | inactive: -0.026 | inactive: -0.029 | inactive: 0.009 | inactive: 0.032 | inactive: 0.009 | inactive: -0.012
8 | EIPR1 (UniProt Q53HC9) | inactive: 0.021 | inactive: 0.003 | inactive: 0 | inactive: -0.043 | inactive: 0.051 | inactive: 0.005 | inactive: 0.027 | inactive: 0.041 | inactive: -0.074 | inactive: 0.058
9 | ELOVL5 isoform 2 (UniProt Q9NYP7) | inactive: -0.166 | inactive: 0.124 | inactive: -0.182 | inactive: 0.021 | inactive: -0.147 | inactive: -0.054 | inactive: 0.063 | inactive: 0.011 | inactive: -0.204 | inactive: 0.068
10 | ELAC2 (UniProt Q9BQ52) | inactive: 0.004 | inactive: -0.009 | inactive: 0.046 | inactive: 0.017 | inactive: -0.032 | inactive: -0.041 | inactive: 0.063 | inactive: 0.038 | inactive: -0.015 | inactive: 0.014
11 | ELP4 isoform 3 (UniProt Q96EB1) | inactive: 0.006 | inactive: 0.003 | inactive: 0.02 | inactive: 0.031 | inactive: 0.017 | inactive: 0.004 | inactive: 0.013 | inactive: -0.023 | inactive: -0.038 | inactive: 0.044
12 | EIF2D (UniProt P41214) | inactive: 0.153 | inactive: 0.185 | inactive: -0.002 | inactive: -0.028 | inactive: -0.265 | inactive: 0.009 | inactive: 0.04 | inactive: 0.033 | inactive: -0.2 | inactive: 0.014
13 | EIF4B (UniProt P23588) | inactive: 0.006 | inactive: -0.031 | inactive: 0.014 | inactive: -0.002 | inactive: 0.031 | inactive: -0.02 | inactive: -0.005 | inactive: -0.007 | inactive: 0.043 | inactive: 0.023
14 | EFTUD2 (UniProt Q15029) | inactive: -0.003 | inactive: 0.017 | inactive: 0.024 | inactive: 0.034 | inactive: 0.06 | inactive: 0.005 | inactive: -0.014 | inactive: -0.021 | inactive: 0.007 | inactive: 0.007
15 | EIF2AK2 (UniProt P19525) | inactive: 0.377 | inactive: -0.135 | – | – | inactive: -0.031 | – | inactive: -0.355 | inactive: -0.241 | – | inactive: -0.258
16 | ELOF1 (UniProt P60002) | inactive: 0.093 | inactive: 0.323 | inactive: 0.014 | inactive: 0.008 | inactive: 0.285 | inactive: 0.025 | inactive: -0.038 | inactive: -0.156 | inactive: 0.014 | inactive: -0.143

Row | Target | log2 fold change [1] | log2 fold change [2] | log2 fold change [3] | log2 fold change [4] | log2 fold change [5] | log2 fold change [6] | log2 fold change [7] | log2 fold change [8] | log2 fold change [9] | log2 fold change [10]
17 | EIF1 (UniProt P41567) | inactive: -0.075 | inactive: 0.02 | inactive: 0.011 | inactive: 0.037 | inactive: 0 | inactive: -0.061 | inactive: -0.036 | inactive: -0.019 | inactive: -0.026 | inactive: 0
18 | EIF2AK3 (UniProt Q9NZJ5) | inactive: 0.082 | inactive: 0.535 | inactive: -0.201 | inactive: -0.072 | inactive: -0.017 | inactive: -0.067 | active: 0.845 | – | inactive: -0.057 | inactive: 0.019
19 | EML5 isoform 5 (UniProt Q05BV3) | inactive: 0.069 | – | inactive: -0.202 | inactive: 0.058 | inactive: -0.337 | inactive: -0.143 | inactive: 0.21 | inactive: 0 | inactive: -0.101 | inactive: -0.046
20 | EPB41L1 (UniProt Q9H4G0) | inactive: 0.027 | inactive: 0.02 | inactive: 0.034 | inactive: -0.071 | inactive: 0.108 | inactive: -0.01 | inactive: -0.136 | inactive: 0 | inactive: 0.08 | inactive: 0.043
21 | EIF3G (UniProt O75821) | inactive: -0.006 | inactive: 0.045 | inactive: -0.135 | inactive: -0.109 | inactive: -0.08 | inactive: -0.017 | inactive: -0.025 | inactive: -0.024 | inactive: -0.033 | inactive: 0.022
22 | ENTPD5 (UniProt O75356) | inactive: 0.105 | – | inactive: 0.034 | inactive: -0.065 | inactive: -0.014 | inactive: -0.013 | inactive: -0.066 | inactive: -0.017 | inactive: 0.105 | inactive: 0.01
23 | EIF2AK1 (UniProt Q9BQI3) | inactive: -0.162 | inactive: 0.171 | – | – | inactive: -0.068 | – | inactive: 0.19 | inactive: 0 | inactive: -0.035 | inactive: -0.025
24 | ENO2 (UniProt U3KQQ1) | inactive: -0.129 | inactive: -1.11 | – | – | – | – | – | – | inactive: 0.304 | –
25 | EMP3 (UniProt P54852) | inactive: 0.08 | – | inactive: 0.064 | inactive: 0.076 | inactive: 0.048 | inactive: 0.021 | inactive: 0.026 | inactive: -0.057 | inactive: -0.091 | inactive: -0.056
26 | EPB41, A0A2R8Y6D0 | inactive: -0.128 | inactive: -0.096 | inactive: 0.168 | inactive: 0.05 | – | inactive: -0.114 | inactive: -0.023 | inactive: 0.082 | inactive: 0.178 | inactive: 0.03
27 | ENTPD6 (UniProt O75354) | inactive: 0.032 | inactive: -0.016 | inactive: 0.014 | inactive: -0.15 | inactive: 0.112 | inactive: -0.025 | inactive: -0.031 | inactive: -0.097 | inactive: 0.068 | inactive: -0.098
28 | EEF1A1 (UniProt P68104) | inactive: -0.114 | – | inactive: 0.042 | inactive: -0.113 | inactive: -0.116 | inactive: 0.001 | inactive: 0.044 | inactive: -0.063 | inactive: -0.057 | inactive: -0.033
29 | EPB41 isoform 4 (UniProt P11171) | inactive: 0.284 | inactive: -0.051 | – | – | – | – | – | inactive: 0.043 | inactive: 0.133 | inactive: -0.193
30 | ELAVL4 (UniProt P26378) | inactive: 0.084 | inactive: -0.053 | inactive: 0 | inactive: -0.026 | – | inactive: 0.147 | inactive: -0.087 | inactive: -0.286 | – | –
31 | EHMT1 (UniProt Q9H9B1) | inactive: -0.151 | inactive: 0.239 | – | – | inactive: -0.034 | – | inactive: -0.077 | inactive: 0.008 | inactive: 0.119 | inactive: 0.034
32 | ENPP3 (UniProt O14638) | inactive: 0.033 | inactive: -0.056 | inactive: 0.076 | inactive: -0.074 | inactive: 0.137 | inactive: -0.132 | inactive: -0.066 | inactive: -0.021 | inactive: -0.047 | inactive: 0.093

Looked up above:
EML5 isoform 5 (UniProt Q05BV3) – log2 fold change [1]: inactive: 0.069
EMP3 (UniProt P54852) – log2 fold change [9]: inactive: -0.091

— the supplement of paper PMC10849652
